Laboratory results as given in paper PMC7819943, “Rice protein-binding microarrays: a tool to detect cis-acting elements near promoter regions in rice”.
Some of the results follow.

Chains of the proteins cited; added tags and fusions are not shown.
UniProt Q0JBA9, entry or part of it: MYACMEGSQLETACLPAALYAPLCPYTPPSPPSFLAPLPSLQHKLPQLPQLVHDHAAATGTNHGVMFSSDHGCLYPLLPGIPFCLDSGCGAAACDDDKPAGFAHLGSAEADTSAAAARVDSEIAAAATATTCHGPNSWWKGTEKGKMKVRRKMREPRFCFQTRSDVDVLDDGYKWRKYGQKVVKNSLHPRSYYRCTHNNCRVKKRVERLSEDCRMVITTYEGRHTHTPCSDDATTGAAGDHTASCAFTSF

Target: OsWRKY34 (Oryza sativa, UniProt Q0JBA9 1-250)
Experiment: protein-binding microarray (RPBM); PBS, 2% BSA, 51.3 ng/ul salmon testes DNA, 50 uM zinc acetate, 200 nM TF, 25 C, 1 h; high values mean tight binding
Details: protein: recombinant; tags: N-terminal polyhistidine and DsRed monomer fusion (pET32a); label: CyDye5-dUTP incorporated in the synthesized complementary strand; 3' TTTTT single-stranded linker to array surface; dsDNA, one strand shown
Procedure, shortened: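 Ni–NTA purification followed expression in E. coli BL21-CodonPlus of transcription factors fused N-terminally to a polyhistidine tag and DsRed. At 200 nM in PBS with 2% BSA, salmon testes DNA and 50 µM zinc acetate, the protein was incubated for 1 h at 25 °C with a custom Agilent array that had been primer-extended with Cy5-dUTP and blocked with 2% BSA. After washing, the array was read on an Axon 4000B scanner. The binding signal is per-feature fluorescence intensity in arbitrary units.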

**Q.** How did the binding signal turn out when “TCCTCGCCGTCCAACTCGCCCAATAAACCGGTCTATCACCCGGAGTCACCTAGTGCAG” was run?
**A.** 8690 fluorescence intensity (a.u.)

**Q.** “ATACGCGGACATATTTACCAACCTACACCTAGCACCACTCCGGAGTCACCTAGTGCAG” was tested. Which binding signal did it give?
**A.** 9380 fluorescence intensity (a.u.)

**Q.** “TGCTGTCGTATACTAGAAGCTGATGCTTTTCTTGCTTAGTCGGAGTCACCTAGTGCAG” was tested. Which binding signal did it give?
**A.** 8940 fluorescence intensity (a.u.)

**Q.** With “CACTGAAAATTAATCTCGTTGTCTGTCTTCAACAAATTAACGGAGTCACCTAGTGCAG” as the sequence, how does the binding signal read?
**A.** 8030 fluorescence intensity (a.u.)

**Q.** “GGATACGGCACCTTTGCGAGCTGCGTCGACCGCTCCGCCGCGGAGTCACCTAGTGCAG” was tested. Which binding signal did it give?
**A.** 9650 fluorescence intensity (a.u.)

**Q.** “GTCTCGTATTCGCTCCGTTTCTGTATTCGATAATATTCGACGGAGTCACCTAGTGCAG” was tested. Which binding signal did it give?
**A.** 10100 fluorescence intensity (a.u.)

**Q.** How did the binding signal turn out when “GTGTTTGTTTTCTTTGTATATCTGTTCAAATTTTGTGAACCGGAGTCACCTAGTGCAG” was run?
**A.** 14300 fluorescence intensity (a.u.)

**Q.** With “ACTACTAGTAGTCAGTCTGGCAAGTCTATATTATCATCTTCGGAGTCACCTAGTGCAG” as the sequence, how does the binding signal read?
**A.** 9670 fluorescence intensity (a.u.)

**Q.** With “CCACCATCCCAGTTTCACTTGTCTGATCTAATCTAAACGGCGGAGTCACCTAGTGCAG” as the sequence, how does the binding signal read?
**A.** 8120 fluorescence intensity (a.u.)

**Q.** How did the binding signal turn out when “GTTTCAACATGTTAATTTATTAGATTATCTGATTTTTATACGGAGTCACCTAGTGCAG” was run?
**A.** 8660 fluorescence intensity (a.u.)

**Q.** With “GTAAGGTCGTAGCTCAATTCACAATCCATGTTTTCTTCTCCGGAGTCACCTAGTGCAG” as the sequence, how does the binding signal read?
**A.** 8890 fluorescence intensity (a.u.)

**Q.** How did the binding signal turn out when “CCTCGTTTTCCGCGCGCATGCTTTTCAAACTGCTAACGGTCGGAGTCACCTAGTGCAG” was run?
**A.** 10100 fluorescence intensity (a.u.)

**Q.** “TGCCCATCTCCTCTCGCTACCCTCATCCGCGCCGCGCTCTCGGAGTCACCTAGTGCAG” was tested. Which binding signal did it give?
**A.** 9090 fluorescence intensity (a.u.)

**Q.** How did the binding signal turn out when “TGCTTAGTTAGATCTTGTGTTTGGAGCGCCATTTTGTTTACGGAGTCACCTAGTGCAG” was run?
**A.** 8580 fluorescence intensity (a.u.)

**Q.** Which binding signal does the source give for “TACTCCTATATATATATGTACCCATTTGAACTAGATTTCTCGGAGTCACCTAGTGCAG” here?
**A.** 9300 fluorescence intensity (a.u.)

**Q.** “ATGCTCAATTCTAAACATTCCTGTAGATCCTTGAGTGATTCGGAGTCACCTAGTGCAG” was tested. Which binding signal did it give?
**A.** 9080 fluorescence intensity (a.u.)

**Q.** Which binding signal does the source give for “GCTGGCTGGCGCCCGTGGTTTTTTCTCTCCTGTTTTGGGACGGAGTCACCTAGTGCAG” here?
**A.** 8780 fluorescence intensity (a.u.)

**Q.** How did the binding signal turn out when “ATCGCTCTCACGCGCTGCCGCCCCTCGCCAACCACGACCTCGGAGTCACCTAGTGCAG” was run?
**A.** 8640 fluorescence intensity (a.u.)

**Q.** How did the binding signal turn out when “CACAGCTGTTGTCGCGTCGACGCGCCGTACCTATCGAGACCGGAGTCACCTAGTGCAG” was run?
**A.** 8550 fluorescence intensity (a.u.)

**Q.** For “TGCATAATGCATGCGCGCGGTACTATTTATTCAACATTTCCGGAGTCACCTAGTGCAG”, which binding signal is on record?
**A.** 10700 fluorescence intensity (a.u.)

**Q.** Which binding signal does the source give for “CCCCGGACTCCGTTCGCGACCTCGCCTCCTCCCTCCTCACCGGAGTCACCTAGTGCAG” here?
**A.** 8050 fluorescence intensity (a.u.)

**Q.** How did the binding signal turn out when “TGGGGAGGAGGGGTGGAACGGGCGTGGAGGGACCTAATTGCGGAGTCACCTAGTGCAG” was run?
**A.** 8950 fluorescence intensity (a.u.)

**Q.** With “CACTGCTCTTCTCTTTCTTCCTTTCTCTTGAAATATATAGCGGAGTCACCTAGTGCAG” as the sequence, how does the binding signal read?
**A.** 9970 fluorescence intensity (a.u.)

**Q.** With “ACGGCCCATCATCCCACACTTGCCAGCCCATGAACTCAGCCGGAGTCACCTAGTGCAG” as the sequence, how does the binding signal read?
**A.** 8330 fluorescence intensity (a.u.)

**Q.** With “TTTTTTTGGTTTTTTTAGTTGAGATTTGGTCAGGGGCAAACGGAGTCACCTAGTGCAG” as the sequence, how does the binding signal read?
**A.** 8590 fluorescence intensity (a.u.)

**Q.** “CTCTCCATTGCAAGATCTTTTACTCGTACTTGGGCTTATGCGGAGTCACCTAGTGCAG” was tested. Which binding signal did it give?
**A.** 9950 fluorescence intensity (a.u.)

**Q.** How did the binding signal turn out when “ACTTCCTTATTTTACAATACTAAACATGTGTTTTTTTGAACGGAGTCACCTAGTGCAG” was run?
**A.** 8540 fluorescence intensity (a.u.)

**Q.** With “GGTTCTCTTCCTCTTGCTCTTGCTCGCCGCCGGCTTGCTCCGGAGTCACCTAGTGCAG” as the sequence, how does the binding signal read?
**A.** 10400 fluorescence intensity (a.u.)

**Q.** With “AACTGGTCTCTACCATTGAACATGCCCTAATACAGTTTTCCGGAGTCACCTAGTGCAG” as the sequence, how does the binding signal read?
**A.** 9060 fluorescence intensity (a.u.)

**Q.** How did the binding signal turn out when “GTTTGTATTGTCTGTTGGAGTCCATAAACGTTTTATCACACGGAGTCACCTAGTGCAG” was run?
**A.** 11800 fluorescence intensity (a.u.)

**Q.** With “ATCTCTCTCTCTCGGCCCGGCCCGTTCTCTCTCTCAGCCTCGGAGTCACCTAGTGCAG” as the sequence, how does the binding signal read?
**A.** 8150 fluorescence intensity (a.u.)

**Q.** “GCTCGTCGTCGCCACCTCACCACCACACACGCGCAGCCAACGGAGTCACCTAGTGCAG” was tested. Which binding signal did it give?
**A.** 8090 fluorescence intensity (a.u.)

**Q.** “ATGGTGTTGGAGTGAGGCAAATTTAACTCTTTTTTTTTTTCGGAGTCACCTAGTGCAG” was tested. Which binding signal did it give?
**A.** 12600 fluorescence intensity (a.u.)

**Q.** With “ATTTTTTAAGTGTACGTTGTTGTTGACTTTTTTTATTAACCGGAGTCACCTAGTGCAG” as the sequence, how does the binding signal read?
**A.** 14400 fluorescence intensity (a.u.)

**Q.** For “CTCCATATTCTTACAAGATCTCAGCTTCTCCATATTCATACGGAGTCACCTAGTGCAG”, which binding signal is on record?
**A.** 8440 fluorescence intensity (a.u.)

**Q.** For “GTCGTAGTTTATTTCTAGCATTGACCTTTAAAGTTGCTACCGGAGTCACCTAGTGCAG”, which binding signal is on record?
**A.** 10600 fluorescence intensity (a.u.)

**Q.** Which binding signal does the source give for “CCGGTAACCCTCACAATCCCGTTCGTCGAGATCGTCGCTTCGGAGTCACCTAGTGCAG” here?
**A.** 9040 fluorescence intensity (a.u.)

**Q.** How did the binding signal turn out when “GACTCTTCTCTTTTCTTTTTATCTTCTTAAAATATATTTACGGAGTCACCTAGTGCAG” was run?
**A.** 11100 fluorescence intensity (a.u.)

**Q.** With “TCCGCCGCCACGCTCCGCCACCTCCGCTCCGACGCTGGACCGGAGTCACCTAGTGCAG” as the sequence, how does the binding signal read?
**A.** 9000 fluorescence intensity (a.u.)

**Q.** For “CTTCTCCCATGCGCCGCCGCAATCTCATCTCTCTGTTTTTCGGAGTCACCTAGTGCAG”, which binding signal is on record?
**A.** 9220 fluorescence intensity (a.u.)

**Q.** How did the binding signal turn out when “ACTCACATATATGTTCCTGCTGTCCCAGGCCTCTTGCTTACGGAGTCACCTAGTGCAG” was run?
**A.** 11300 fluorescence intensity (a.u.)

**Q.** How did the binding signal turn out when “TACACGGTATTGTATATGTTAGGGCTGAAGATTTCTGGTACGGAGTCACCTAGTGCAG” was run?
**A.** 8060 fluorescence intensity (a.u.)
